From doi:10.1101/2021.10.05.463194
Results are given in words; binding and its absence hold for the method and conditions named. In cells and extracts the contact can be indirect. Some entries that bind do so weakly or less than the wild type. Tags and fused reporters may be left off the sequences shown.

T1: GST-tagged HsNup93 (96-819) (human) (UniProt Q8N1F7)
T1 sequence: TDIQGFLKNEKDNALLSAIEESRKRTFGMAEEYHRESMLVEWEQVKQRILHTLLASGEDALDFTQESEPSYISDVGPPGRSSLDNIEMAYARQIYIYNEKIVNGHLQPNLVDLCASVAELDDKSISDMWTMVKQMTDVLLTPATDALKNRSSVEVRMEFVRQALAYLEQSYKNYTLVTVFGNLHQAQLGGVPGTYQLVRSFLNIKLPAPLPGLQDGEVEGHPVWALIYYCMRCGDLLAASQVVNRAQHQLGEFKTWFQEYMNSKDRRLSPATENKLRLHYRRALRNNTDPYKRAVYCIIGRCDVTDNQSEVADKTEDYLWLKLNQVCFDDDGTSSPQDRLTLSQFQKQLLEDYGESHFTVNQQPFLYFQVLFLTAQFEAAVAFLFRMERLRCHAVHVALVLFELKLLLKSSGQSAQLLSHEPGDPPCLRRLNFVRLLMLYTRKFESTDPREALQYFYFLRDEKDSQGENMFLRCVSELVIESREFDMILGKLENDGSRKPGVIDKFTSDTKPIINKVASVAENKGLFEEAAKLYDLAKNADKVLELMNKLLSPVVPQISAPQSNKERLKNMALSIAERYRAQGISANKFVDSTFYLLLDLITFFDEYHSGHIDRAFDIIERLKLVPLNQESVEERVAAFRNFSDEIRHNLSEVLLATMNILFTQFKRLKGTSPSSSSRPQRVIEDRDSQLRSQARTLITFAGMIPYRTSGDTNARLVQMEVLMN

T2: GST-tagged HsNup93 (1-150) (human) (UniProt Q8N1F7)
T2 sequence: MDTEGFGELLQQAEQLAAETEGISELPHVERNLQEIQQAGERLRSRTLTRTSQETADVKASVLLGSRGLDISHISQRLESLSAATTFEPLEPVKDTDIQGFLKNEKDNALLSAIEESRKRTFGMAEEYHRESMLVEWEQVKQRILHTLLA


Experiments:
[1] = biological target: T1, GST-tagged HsNup93 (96-819) (human); test: pull-down
[2] = biological target: T2, GST-tagged HsNup93 (1-150) (human); test: pull-down

Row | binding [1] | binding [2] | Binder
1 | binds | – | His6-tagged HsNup155 (1-515) (domain or fragment, UniProt O75694 1-515) MPSSLLGAAMPASTSAAALQEALENAGRLIDRQLQEDRMYPDLSELLMVSAPNNPTVSGMSDMDYPLQGPGLLSVPNLPEISSIRRVPLPPELVEQFGHMQCNCMMGVFPPISRAWLTIDSDIFMWNYEDGGDLAYFDGLSETILAVGLVKPKAGIFQPHVRHLLVLATPVDIVILGLSYANLQTGSGVLNDSLSGGMQLLPDPLYSLPTDNTYLLTITSTDNGRIFLAGKDGCLYEVAYQAEAGWFSQRCRKINHSKSSLSFLVPSLLQFTFSEDDPILQIAIDNSRNILYTRSEKGVIQVYDLGQDGQGMSRVASVSQNAIVSAAGNIARTIDRSVFKPIVQIAVIENSESLDCQLLAVTHAGVRLYFSTCPFRQPLARPNTLTLVHVRLPPGFSASSTVEKPSKVHRALYSKGILLMAASENEDNDILWCVNHDTFPFQKPMMETQMTAGVDGHSWALSAIDELKVDKIITPLNKDHIPITDSPVVVQQHMLPPKKFVLLSAQGSLMFHKLR
2 | binds | binds | His6-tagged HsNup35 (1-305) (domain or fragment, UniProt Q8NFH5 1-305) MAAFAVEPQGPALGSEPMMLGSPTSPKPGVNAQFLPGFLMGDLPAPVTPQPRSISGPSVGVMEMRSPLLAGGSPPQPVVPAHKDKSGAPPVRSIYDDISSPGLGSTPLTSRRQPNISVMQSPLVGVTSTPGTGQSMFSPASIGQPRKTTLSPAQLDPFYTQGDSLTSEDHLDDSWVTVFGFPQASASYILLQFAQYGNILKHVMSNTGNWMHIRYQSKLQARKALSKDGRIFGESIMIGVKPCIDKSVMESSDRCALSSPSLAFTPPIKTLGTPTQPGSTPRISTMRPLATAYKASTSDYQVISD
